The assay has as its target HMG-CoA reductase (Rattus norvegicus, UniProt P51639). To be noted: for IC50: read-out: HMG-CoA reductase IC50, Table 3.

Amino acid sequences for entries named in this document (tags omitted).
UniProt P51639, whole entry: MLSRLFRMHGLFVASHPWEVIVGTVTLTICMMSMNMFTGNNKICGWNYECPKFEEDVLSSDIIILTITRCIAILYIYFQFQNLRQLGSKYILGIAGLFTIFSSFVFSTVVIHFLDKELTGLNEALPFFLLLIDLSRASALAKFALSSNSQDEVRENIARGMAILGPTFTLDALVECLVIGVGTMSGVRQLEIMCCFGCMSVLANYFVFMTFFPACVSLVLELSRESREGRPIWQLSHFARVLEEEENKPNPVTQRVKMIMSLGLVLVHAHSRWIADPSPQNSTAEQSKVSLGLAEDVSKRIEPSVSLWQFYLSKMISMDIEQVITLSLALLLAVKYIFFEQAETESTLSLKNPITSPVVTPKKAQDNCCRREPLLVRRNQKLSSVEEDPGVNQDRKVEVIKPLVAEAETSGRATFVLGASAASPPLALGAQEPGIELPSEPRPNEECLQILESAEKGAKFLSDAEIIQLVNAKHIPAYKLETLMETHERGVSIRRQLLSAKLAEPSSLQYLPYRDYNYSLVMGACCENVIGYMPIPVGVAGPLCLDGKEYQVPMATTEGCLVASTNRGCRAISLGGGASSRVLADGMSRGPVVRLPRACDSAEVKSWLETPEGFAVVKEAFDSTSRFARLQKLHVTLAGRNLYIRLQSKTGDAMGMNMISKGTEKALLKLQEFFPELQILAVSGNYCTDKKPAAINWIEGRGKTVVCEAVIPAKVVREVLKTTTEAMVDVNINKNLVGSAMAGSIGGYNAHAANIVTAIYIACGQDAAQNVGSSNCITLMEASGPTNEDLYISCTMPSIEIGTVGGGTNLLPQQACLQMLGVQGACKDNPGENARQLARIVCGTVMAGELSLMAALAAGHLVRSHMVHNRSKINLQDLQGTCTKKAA

The match of structure and compound is tentative.

`CCC(C)C(=O)OC1CC(C)C=C2C=CC(C)C(CCC(=O)CC(O)CC(=O)O)C21` (stereo not drawn): the IC50 came out at 0.604 µM.
For the compound `CCC(C)(C)C(=O)OC1CC(C)C=C2C=CC(C)C(CCC(=O)CC(O)CC(=O)O)C21` (stereo not drawn), the IC50 came out at 0.487 µM. Besides, the “activity compared with the directly comparable (original) hydroxy compounds” value (comparison in words, from Table 3) is on record as “the activity is very much lower than in the original hydroxy compounds”.

Values taken from US5604256A, “Octahydronaphthalene oxime derivatives for cholesterol biosynthesis inhibition” (Sankyo Company, Limited, priority 1992, dated 1997).
